# Data as given in the supplement of paper PMC8166895.
# Where a name gives a salt, the structure may show the parent alone. This is one part of the list. Most values lie at the level of the controls, where differences are scatter.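 Melting temperature was read by differential scanning fluorimetry in a single-replicate pilot screen of a library of approved drugs and clinical or known-target compounds. Compounds raising the melting point by at least 2 °C were the top stabilizing hits, and negative shifts mean destabilization.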
# System: SARS-CoV-2 main protease (Mpro, nsp5)
# Test: thermal shift ΔTm of Mpro relative to plate average Tm; higher = stronger thermal stabilization of Mpro (binding)
# Conditions: 10 µM; protein concentration 1 µM
row,SMILES,thermal shift ΔTm of Mpro
1,Cc1c(CCC(=O)O)ccc(OCc2cc(Cl)cc3c2OC(C)(C)C3)c1C [GPR120 receptor agonist],-0.368 °C
2,CC[C@@H]1[C@H](O)[C@@H]2[C@H](CC[C@]3(C)[C@@H]([C@H](C)CCCO)CC[C@@H]23)[C@@]2(C)CC[C@@H](O)C[C@@H]12,-0.397 °C
3,O=C(O)Cn1c2c(c3cc(F)ccc31)CN(C(=O)c1cccc3ccccc13)CC2 [Setipiprant],0.0638 °C
4,Nc1nc2c(ncn2COCCO)c(=O)[nH]1 [Aciclovir],0.134 °C
5,Oc1ccc(-c2c(-c3ccccc3)nn3c(C(F)(F)F)cc(C(F)(F)F)nc23)cc1,0.0707 °C
6,COc1ccc(S(=O)(=O)Nc2c(C)cc(C)cc2C)cc1,-0.0316 °C
7,CS(=O)(=O)N1CCN(Cc2cc3nc(-c4cccc5[nH]ncc45)nc(N4CCOCC4)c3s2)CC1,0.0794 °C
8,CC(C)NCC(O)c1ccc(O)c(O)c1 (configuration not stated) [Isoprenaline HCl],0.0485 °C
9,Cc1cc(N2CCOCC2)cc2[nH]c(-c3c(NC[C@@H](O)c4cccc(Cl)c4)cc[nH]c3=O)nc12,0.137 °C
10,COc1ccc2[nH]c([S@@+]([O-])Cc3ncc(C)c(OC)c3C)nc2c1 [Esomeprazole Sodium],-0.12 °C
11,COc1ccc2[nH]c([S@@+]([O-])Cc3ncc(C)c(OC)c3C)nc2c1 [Esomeprazole Magnesium],-0.0991 °C
12,C[N+](C)(C)CC(O)CC(=O)O (stereo in doubt) [L-Carnitine hydrochloride],0.286 °C
13,CC1(C)C[C@@H]1C(=O)N/C(=C\CCCCSC[C@H](N)C(=O)O)C(=O)O [Cilastatin],0.403 °C
14,O=C(NCc1cccc(O)c1)c1cc2cc(F)ccc2[nH]1,0.00276 °C
15,CN(C)Cc1cccc(N=C(c2ccccc2)c2c(O)[nH]c3cc(C(=O)N(C)C)ccc23)c1,-0.184 °C
16,OC(c1cc(C(F)(F)F)nc2c(C(F)(F)F)cccc12)C1CCCCN1 (configuration not stated) [Mefloquine HCl],0.0703 °C
17,CCc1c(O)cc(O)c(C(=O)c2ccc(OCCN3CCOCC3)c(OC)c2)c1CC(=O)N(CCOC)CCOC,-0.17 °C
18,CNCCCC12CCC(c3ccccc31)c1ccccc12 [Maprotiline HCl],0.0347 °C
19,CC[C@H]1OC(=O)C[C@@H](O)[C@H](C)[C@@H](O[C@@H]2O[C@H](C)[C@@H](O)[C@H](N(C)C)[C@H]2O)[C@@H](CCN2C[C@H](C)C[C@H](C)C2)C[C@@H](C)C(=O)/C=C/C(C)=C/[C@@H]1CO[C@@H]1O[C@H](C)[C@@H](O)[C@@H](OC)[C@H]1OC [Tilmicosin],0.0292 °C
20,Cc1coc2c1C(=O)C(=O)c1c-2ccc2c1CCCC2(C)C [Tanshinone IIA],-0.0364 °C
21,Cc1cn2cc(C(=O)N(C)CCO)cc(N[C@@H]3CCOc4cccc(C)c43)c2n1,-0.0777 °C
22,CO/N=C(\C(=O)N[C@@H]1C(=O)N2C(C(=O)[O-])=C(C[N+]3(C)CCCC3)CS[C@H]12)c1csc(N)n1 [Cefepime Dihydrochloride Monohydrate],0.0607 °C
23,NCC1CCN(c2nccc(-c3ccc4ccccc4c3)n2)CC1,0.0268 °C
24,Fc1cc(F)c2c(c1)[C@H]1C=CC[C@H]1C(c1cccnc1)N2 (some centres not stated) [Golgicide A],0.0423 °C
25,CC[C@@H](C)c1ccc(NC(=O)Cn2cnc3c2c(=O)n(C)c(=O)n3C)cc1 (racemic),0.109 °C
26,N#Cc1ccc(COC[C@H]2O[C@@H](n3c(NCc4ccc(Cl)c(Cl)c4)nc4c(N)ncnc43)[C@H](O)[C@@H]2O)cc1,-0.205 °C

# Exported as tab-separated lines: entries from further up.
row	SMILES	thermal shift ΔTm of Mpro
19	CC[C@H]1OC(=O)C[C@@H](O)[C@H](C)[C@@H](O[C@@H]2O[C@H](C)[C@@H](O)[C@H](N(C)C)[C@H]2O)[C@@H](CCN2C[C@H](C)C[C@H](C)C2)C[C@@H](C)C(=O)/C=C/C(C)=C/[C@@H]1CO[C@@H]1O[C@H](C)[C@@H](O)[C@@H](OC)[C@H]1OC [Tilmicosin]	0.0292 °C
20	Cc1coc2c1C(=O)C(=O)c1c-2ccc2c1CCCC2(C)C [Tanshinone IIA]	-0.0364 °C
21	Cc1cn2cc(C(=O)N(C)CCO)cc(N[C@@H]3CCOc4cccc(C)c43)c2n1	-0.0777 °C

# Going on with the list:

row,SMILES,thermal shift ΔTm of Mpro
1,C[C@]12C=CC(=O)C=C1CC[C@H]1[C@@H]3C[C@@H](O)[C@](O)(C(=O)CO)[C@@]3(C)C[C@H](O)[C@@]12F [Triamcinolone],0.096 °C
2,CC1(C)O[C@@H]2C[C@H]3[C@@H]4CCC5=CC(=O)CC[C@]5(C)[C@@]4(F)[C@@H](O)C[C@]3(C)[C@]2(C(=O)CCl)O1 [Halcinonide],-0.084 °C
3,C=C1CCN([C@H](C)[C@](O)(Cn2cncn2)c2ccc(F)cc2F)CC1 [Efinaconazole],0.0185 °C
4,CN(C)CCN(C)CCc1ccc(Cl)c(Cl)c1,0.148 °C
5,CCN(CC)C(=O)/C(C#N)=C/c1cc(O)c(O)c([N+](=O)[O-])c1 [Entacapone],0.658 °C
6,S=C(NCCc1ccccn1)Nc1ccc(Br)cn1 [Trovirdine],-0.0465 °C
7,C[C@@H]1O[C@@H](OC[C@H]2O[C@@H](Oc3c(-c4ccc(OCCO)c(OCCO)c4)oc4cc(OCCO)cc(O)c4c3=O)[C@H](O)[C@@H](O)[C@@H]2O)[C@H](O)[C@H](O)[C@H]1O [Troxerutin],-0.0554 °C
8,Nc1nc(N)nc(NC2CC2)n1 [Cyromazine],-0.0873 °C
9,Cn1nnc(-c2ccc3c(c2)[nH]c2nc(Cc4ccccc4)nc(NC4CCC(N)CC4)c23)n1 (configuration not stated),-0.169 °C
10,C[C@@H](O)[C@H]1C(=O)N2C(C(=O)O)=C(S[C@@H]3CN[C@H](C(=O)N(C)C)C3)[C@H](C)[C@H]12 [Meropenem],0.121 °C
11,COc1ccc(NC(=O)c2ccc(C(=N)N(C)C)cc2)c(C(=O)Nc2ccc(Cl)cn2)c1 [Betrixaban maleate],0.0141 °C
12,COc1ccc(NC(=O)c2ccc(C(=N)N(C)C)cc2)c(C(=O)Nc2ccc(Cl)cn2)c1 [Betrixaban hydrochloride],0.0237 °C
13,Cc1cc(C)cc(OCC2CNC(=O)O2)c1 (configuration not stated) [Metaxalone],0.21 °C
14,CN1[C@@H]2CC[C@H]1C[C@@H](OC(=O)[C@H](CO)c1ccccc1)C2 [Hyoscyamine],-0.0775 °C
15,CC(=O)O[C@H]1C[C@@H]2CC[C@@H]3[C@H](CC[C@@]4(C)[C@H]3C[C@H]([N+]3(C)CCCCC3)[C@@H]4OC(C)=O)[C@@]2(C)C[C@@H]1N1CCCCC1 [Vecuronium Bromide],0.102 °C
16,CC(C)(C)c1nc(-c2cccc(NS(=O)(=O)c3c(F)cccc3F)c2F)c(-c2ccnc(N)n2)s1,-0.169 °C
17,C[C@H]1O[C@@H](n2cc(F)c(=O)[nH]c2=O)[C@H](O)[C@@H]1O [Doxifluridine],0.0683 °C
18,Cc1cc(Nc2cc(N)ncn2)c(=O)n2c1C(=O)NC21CCCCC1,-0.0255 °C
19,Cc1c(C(=O)Nc2ccc(N3CCC(N4CCOCC4)CC3)c(C#N)c2)cnn1-c1ccc(Cl)cc1,-0.329 °C
20,COc1cc(O)c2c(=O)cc(-c3ccc(O)c(OC)c3)oc2c1 [Velutin],0.0998 °C
21,O=c1c(-c2ccc(O)cc2)coc2cc(O)ccc12 [Daidzein],0.0966 °C
22,C=C(Cc1ccccc1Cl)C(=O)OCC,-0.0933 °C
23,O=C(O)CCCCC(CCSCc1ccccc1)SCc1ccccc1 (configuration not stated),-0.23 °C
24,CC1(C)CC[C@]2(C(=O)O)CC[C@]3(C)C(=CC[C@@H]4[C@@]5(C)CC[C@H](O)C(C)(C)[C@@H]5CC[C@]43C)[C@@H]2C1 [Oleanolic Acid],0.284 °C
25,CN1C(=O)OC(C)(C)C1=O [Trimethadione],0.14 °C
26,CC(C)CN(CC(=O)N1CCN(CC(OCc2ccc3ccccc3c2)c2ccc(Cl)cc2Cl)CC1)CC(C)C (configuration not stated),-0.271 °C

row,SMILES,thermal shift ΔTm of Mpro
1,Cn1nccc1Nc1nccc(-c2cc3c(s2)C(C)(C)N(CCN2CCOCC2)C3=O)n1,-0.041 °C
2,CN(C/C=C/c1ccccc1)Cc1cccc2ccccc12 [Naftifine hydrochloride],0.0314 °C
3,Nc1c(CC(=O)O)cccc1C(=O)c1ccc(Br)cc1 [Bromfenac Sodium],-0.117 °C
4,CN(C)CCOc1ccc(-c2nc(-c3ccncc3)c(-c3ccc4c(c3)CC/C4=N\O)[nH]2)cc1,-0.151 °C
5,C[C@H](Cc1cc2c(c(C(N)=O)c1)N(CCCO)CC2)NCCOc1ccccc1OCC(F)(F)F [Silodosin],0.0286 °C
6,O=C(c1ccc(/C=C/c2n[nH]c3ccccc23)cc1)N1CCNCC1,-0.196 °C
7,C/C(=C\C(=O)Nc1ccccc1C(=O)O)c1ccc2ccccc2c1,0.244 °C
8,Cc1cc(Cl)ccc1OCCCC(=O)NO [Droxinostat],0.199 °C
9,O=C(NCCN1CCOCC1)c1ccc(Cl)cc1,-0.0952 °C
10,Cc1ccc(-n2sc(=O)n(Cc3ccc(F)cc3)c2=O)cc1,-0.979 °C
11,COc1c(C)c2c(c(O)c1C/C=C(\C)CCC(=O)O)C(=O)OC2 [Mycophenolic acid],0.0728 °C
12,O=C(Oc1ccccc1C(=O)O)c1ccccc1O [Sasapyrine],0.148 °C
13,CC(C)(O)c1ccc2c(c1)ncn2-c1cccc(-c2ccccc2C#N)c1,-0.125 °C
14,O=C(O)c1ccc(S(=O)(=O)N(Cl)Cl)cc1 [Halazone],0.0185 °C
15,CCCCCNC(=N)N/N=C/c1c[nH]c2ccc(OC)cc12 [Tegaserod maleate],0.202 °C
16,CS(=O)(=O)c1ccc(-c2cnc(N)c(C(=O)Nc3ccccc3)n2)cc1,-0.242 °C
17,NS(=O)(=O)c1cc(Cl)c(Cl)c(S(N)(=O)=O)c1 [Dichlorphenamide],-0.176 °C
18,O=C(O)C1=CO[C@@H](O[C@@H]2O[C@H](CO)[C@@H](O)[C@H](O)[C@H]2O)[C@@H]2C(CO)=CC[C@H]12 [Geniposidic acid],-0.0622 °C
19,CC(C)C[C@H](NC(=O)CN)C(=O)O,-0.00719 °C
20,Cc1ccc(Nc2ncc3c(n2)N(C)C(=O)N(c2cc(NC(=O)c4cccc(C(F)(F)F)c4)ccc2C)C3)cn1,0.147 °C
21,NCCc1ccc(S(=O)(=O)F)cc1,-0.164 °C
22,Nc1ccc(S(=O)(=O)Nc2cnc3ccccc3n2)cc1 [Sulfaquinoxaline sodium],0.196 °C
23,CNC[C@H](O)[C@@H](O)[C@H](O)[C@H](O)CO [Meglumine],0.2 °C
24,COC(=O)N[C@H](C(=O)N[C@@H](Cc1ccccc1)[C@@H](O)CN(Cc1ccc(-c2ccccn2)cc1)NC(=O)[C@@H](NC(=O)OC)C(C)(C)C)C(C)(C)C [Atazanavir Sulfate],0.228 °C
25,COC(=O)N[C@H](C(=O)N[C@@H](Cc1ccccc1)[C@@H](O)CN(Cc1ccc(-c2ccccn2)cc1)NC(=O)[C@@H](NC(=O)OC)C(C)(C)C)C(C)(C)C [Atazanavir],-0.0303 °C
